B1: vinculin (protein, UniProt P85972 1-1066)
chain: MPVFHTRTIESILEPVAQQISHLVIMHEEGEVDGKAIPDLTAPVAAVQAAVSNLVRVGKETVQTTEDQILKRDMPPAFIKVENACTKLVQAAQMLQSDPYSVPARDYLIDGSRGILSGTSDLLLTFDEAEVRKIIRVCKGILEYLTVAEVVETMEDLVTYTKNLGPGMTKMAKMIDERQQELTHQEHRVMLVNSMNTVKELLPVLISAMKIFVTTKNSKNQGIEEALKNRNFTVGKMSAEINEIIRVLQLTSWDEDAWASKDTEAMKRALASIDSKLNQAKGWLRDPNASPGDAGEQAIRQILDEAGKVGELCAGKERREILGTCKMLGQMTDQVADLRARGQGASPVAMQKAQQVSQGLDVLTAKVENAARKLEAMTNSKQSIAKKIDAAQNWLADPNGGPEGEEQIRGALAEARKIAELCDDPKERDDILRSLGEIAALTSKLGDLRRQGKGDSPEARALAKQVATALQNLQTKTNRAVANSRPAKAAVHLEGKIEQAQRWIDNPTVDDRGVGQAAIRGLVAEGHRLANVMMGPYRQDLLAKCDRVDQLAAQLADLAARGEGESPQARALASQLQDSLKDLKTQMQEAMTQEVSDVFSDTTTPIKLLAVAATAPPDAPNREEVFDERAANFENHSGRLGATAEKAAAVGAANKSTVEGIQASVKTARELTPQVISAARILLRNPGNQAAYEHFETMKNQWIDNVEKMTGLVDEAIDTKSLLDASEEAIKKDLDKCKVAMANIQPQMLVAGATSIARRANRILLVAKREVENSEDPKFREAVKAASDELSKTISPMVMDAKAVAGNISDPGLQKSFLDSGYRILGAVAKVREAFQPQEPDFPPPPPDLEQLRLTDELAPPKPPLPEGEVPPPRPPPPEEKDEEFPEQKAGEVINQPMMMAARQLHDEARKWSSKGNDIIAAAKRMALLMAEMSRLVRGGSGTKRALIQCAKDIAKASDEVTRLAKEVAKQCTDKRIRTNLLQVCERIPTISTQLKILSTVKATMLGRTNISDEESEQATEMLVHNAQNLMQSVKETVREAEAASIKIRTDAGFTLRWVRKTPWYQ
B2: TIMM8b (protein, UniProt P62078 1-83)
chain: MAELGEADEAELQRLVAAEQQKAQFTAQVHHFMELCWDKCVEKPGSRLDSRTENCLSSCVDRFIDTTLAITGRFAQIVQKGGQ
B3: TIMM9 (protein, UniProt Q9WV97 1-89)
chain: MAAQIPESDQIKQFKEFLGTYNKLTETCFLDCVKDFTTREVKPEEVTCSEHCLQKYLKMTQRISMRFQEYHIQQNEALAAKAGLLGQPR
B4: 28S ribosomal protein MRPS36 (human) (protein, UniProt P82909 1-103)
chain: MMGSKMASASRVVQVVKPHTPLIRFPDRRDNPKPNVSEALRSAGLPSHSSVISQHSKGSKSPDLLMYQGPPDTAEIIKTLPQKYRRKLVSQEEMEFIQRGGPE
B5: mt-Lon protease homolog (human) (protein, UniProt P36776 68-959)
chain: FWEASSRGGGAFSGGEDASEGGAEEGAGGAGGSAGAGEGPVITALTPMTIPDVFPHLPLIAITRNPVFPRFIKIIEVKNKKLVELLRRKVRLAQPYVGVFLKRDDSNESDVVESLDEIYHTGTFAQIHEMQDLGDKLRMIVMGHRRVHISRQLEVEPEEPEAENKHKPRRKSKRGKKEAEDELSARHPAELAMEPTPELPAEVLMVEVENVVHEDFQVTEEVKALTAEIVKTIRDIIALNPLYRESVLQMMQAGQRVVDNPIYLSDMGAALTGAESHELQDVLEETNIPKRLYKALSLLKKEFELSKLQQRLGREVEEKIKQTHRKYLLQEQLKIIKKELGLEKDDKDAIEEKFRERLKELVVPKHVMDVVDEELSKLGLLDNHSSEFNVTRNYLDWLTSIPWGKYSNENLDLARAQAVLEEDHYGMEDVKKRILEFIAVSQLRGSTQGKILCFYGPPGVGKTSIARSIARALNREYFRFSVGGMTDVAEIKGHRRTYVGAMPGKIIQCLKKTKTENPLILIDEVDKIGRGYQGDPSSALLELLDPEQNANFLDHYLDVPVDLSKVLFICTANVTDTIPEPLRDRMEMINVSGYVAQEKLAIAERYLVPQARALCGLDESKAKLSSDVLTLLIKQYCRESGVRNLQKQVEKVLRKSAYKIVSGEAESVEVTPENLQDFVGKPVFTVERMYDVTPPGVVMGLAWTAMGGSTLFVETSLRRPQDKDAKGDKDGSLEVTGQLGEVMKESARIAYTFARAFLMQHAPANDYLVTSHIHLHVPEGATPKDGPSAGCTIVTALLSLAMGRPVRQNLAMTGEVSLTGKILPVGGIKEKTIAAKRAGVTCIVLPAENKKDFYDLAAFITEGLEVHFVEHYREIFDIAFPDEQAEALAVER
B6: mt-2-oxoglutarate/malate carrier protein (human) (protein, UniProt Q02978 1-314)
chain: MAATASAGAGGIDGKPRTSPKSVKFLFGGLAGMGATVFVQPLDLVKNRMQLSGEGAKTREYKTSFHALTSILKAEGLRGIYTGLSAGLLRQATYTTTRLGIYTVLFERLTGADGTPPGFLLKAVIGMTAGATGAFVGTPAEVALIRMTADGRLPADQRRGYKNVFNALIRITREEGVLTLWRGCIPTMARAVVVNAAQLASYSQSKQFLLDSGYFSDNILCHFCASMISGLVTTAASMPVDIAKTRIQNMRMIDGKPEYKNGLDVLFKVVRYEGFFSLWKGFTPYYARLGPHTVLTFIFLEQMNKAYKRLFLSG
B7: SAMM50 (human) (protein, UniProt Q9Y512 1-469)
chain: MGTVHARSLEPLPSSGPDFGGLGEEAEFVEVEPEAKQEILENKDVVVQHVHFDGLGRTKDDIIICEIGDVFKAKNLIEVMRKSHEAREKLLRLGIFRQVDVLIDTCQGDDALPNGLDVTFEVTELRRLTGSYNTMVGNNEGSMVLGLKLPNLLGRAEKVTFQFSYGTKETSYGLSFFKPRPGNFERNFSVNLYKVTGQFPWSSLRETDRGMSAEYSFPIWKTSHTVKWEGVWRELGCLSRTASFAVRKESGHSLKSSLSHAMVIDSRNSSILPRRGALLKVNQELAGYTGGDVSFIKEDFELQLNKQLIFDSVFSASFWGGMLVPIGDKPSSIADRFYLGGPTSIRGFSMHSIGPQSEGDYLGGEAYWAGGLHLYTPLPFRPGQGGFGELFRTHFFLNAGNLCNLNYGEGPKAHIRKLAECIRWSYGAGIVLRLGNIARLELNYCVPMGVQTGDRICDGVQFGAGIRFL
B8: mt-phosphate carrier protein (human) (protein, UniProt Q00325 50-362)
chain: AVEEQYSCDYGSGRFFILCGLGGIISCGTTHTALVPLDLVKCRMQVDPQKYKGIFNGFSVTLKEDGVRGLAKGWAPTFLGYSMQGLCKFGFYEVFKVLYSNMLGEENTYLWRTSLYLAASASAEFFADIALAPMEAAKVRIQTQPGYANTLRDAAPKMYKEEGLKAFYKGVAPLWMRQIPYTMMKFACFERTVEALYKFVVPKPRSECSKPEQLVVTFVAGYIAGVFCAIVSHPADSVVSVLNKEKGSSASLVLKRLGFKGVWKGLFARIIMIGTLTALQWFIYDSVKVYFRLPRPPPPEMPESLKKKLGLTQ

Protein sequences, listed by entry. Tags and fused reporters are not part of them.
UniProt Q12983: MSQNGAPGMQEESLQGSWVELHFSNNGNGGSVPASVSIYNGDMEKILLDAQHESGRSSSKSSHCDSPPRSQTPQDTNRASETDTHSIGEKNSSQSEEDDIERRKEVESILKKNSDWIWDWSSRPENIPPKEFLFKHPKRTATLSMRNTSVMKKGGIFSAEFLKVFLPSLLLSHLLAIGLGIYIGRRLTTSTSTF

No constants are given. Whether binding was seen depends on the method and setting. Binding seen in cells or lysates may run through a third protein. A yes stands for co-enrichment or nearness to the bait. Other partners may have been found. For some assays here: A no says only that the protein was not detected with the bait.

The target in the first assay is Bcl-2 nineteen kilodalton interacting protein 3 (rat) (rat (endogenous in LV myocardium and adult cardiac myocytes)). In words: affinity purification with mass spectrometry; 500 ug lysate of rat LV myocardium (Sham n = 3, pressure overload HFrEF n = 3) incubated with 10 ug mouse monoclonal BNIP3 antibody (Abcam ab10433); eluate on SDS-PAGE, in-gel trypsin digestion, nano-LC-MS/MS, label-free quantification.
With B1, the binding result is recorded as “binds”. Same read-out and setting: next, B2: “no binding”.

On to B3, for which the binding entry was “no binding”.

In another assay the target is Bcl-2 nineteen kilodalton interacting protein 3 (human) (human (endogenous in LV myocardium)) (UniProt Q12983). In words: affinity purification with mass spectrometry; 500 ug lysate of human HFrEF LV myocardium (n = 3, taken at LVAD implantation) incubated with 10 ug mouse monoclonal BNIP3 antibody (Abcam ab10433); eluate on SDS-PAGE, in-gel trypsin digestion, nano-LC-MS/MS.
On to B4, for which the binding entry is “binds”. On the same count and under the same terms, next, B5: “binds”. Turning to B6, the binding entry is given as “binds”.

As to B7, the binding result was “binds”. Same read-out and setting: next, B8: “binds”.

(Values after article PMC9105187.)
